For assay [1], the target named is BirA2-Flag-GID4 fusion protein (human) (UniProt Q8IVV7). The experiment in a line: proximity labelling; BioID2: BirA2-Flag-tagged bait in Flp-In T-REx HeLa cells, tetracycline 1 μg/ml and biotin 50 μM for 24 h, with or without MG132 (5 μM); biotinylated proteins on streptavidin beads, mass spectrometry, SAINT against BirA2-Flag-EGFP, BFDR ≤ 0.01.
The target in assay [2] is ARMC8-BirA2-Flag (human) (UniProt Q8IUR7). The description is as above.

By UniProt entry, the sequences of proteins in these tests, tags left out. Where a name states a change or a piece, a line headed by the entry shows the natural chain unless it says otherwise.
UniProt Q8IVV7: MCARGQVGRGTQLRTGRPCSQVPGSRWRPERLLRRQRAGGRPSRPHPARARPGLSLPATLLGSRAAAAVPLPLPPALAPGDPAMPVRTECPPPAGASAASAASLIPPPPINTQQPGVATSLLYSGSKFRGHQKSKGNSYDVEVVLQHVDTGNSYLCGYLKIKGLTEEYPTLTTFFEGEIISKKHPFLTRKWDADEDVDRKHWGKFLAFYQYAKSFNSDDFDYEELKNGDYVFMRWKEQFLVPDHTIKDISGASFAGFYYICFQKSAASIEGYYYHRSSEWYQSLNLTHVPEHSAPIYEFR
UniProt Q8IUR7: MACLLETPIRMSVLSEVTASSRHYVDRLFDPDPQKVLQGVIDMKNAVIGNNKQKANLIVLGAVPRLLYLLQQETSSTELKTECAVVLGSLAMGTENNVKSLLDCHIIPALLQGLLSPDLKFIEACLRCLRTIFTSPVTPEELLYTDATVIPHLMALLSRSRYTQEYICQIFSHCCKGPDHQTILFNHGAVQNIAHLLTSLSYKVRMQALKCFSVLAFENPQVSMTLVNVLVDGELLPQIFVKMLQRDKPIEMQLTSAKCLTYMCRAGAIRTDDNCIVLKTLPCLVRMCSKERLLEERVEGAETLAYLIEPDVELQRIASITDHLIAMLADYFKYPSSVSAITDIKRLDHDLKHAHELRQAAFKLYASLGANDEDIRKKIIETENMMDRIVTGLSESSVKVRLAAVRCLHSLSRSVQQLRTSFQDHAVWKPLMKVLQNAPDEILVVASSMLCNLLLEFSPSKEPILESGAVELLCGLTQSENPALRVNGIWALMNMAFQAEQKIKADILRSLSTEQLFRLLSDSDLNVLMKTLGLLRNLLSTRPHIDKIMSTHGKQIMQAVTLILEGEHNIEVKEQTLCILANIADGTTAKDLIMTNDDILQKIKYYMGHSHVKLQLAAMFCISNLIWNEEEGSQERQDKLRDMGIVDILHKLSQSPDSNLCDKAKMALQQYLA
UniProt O43464: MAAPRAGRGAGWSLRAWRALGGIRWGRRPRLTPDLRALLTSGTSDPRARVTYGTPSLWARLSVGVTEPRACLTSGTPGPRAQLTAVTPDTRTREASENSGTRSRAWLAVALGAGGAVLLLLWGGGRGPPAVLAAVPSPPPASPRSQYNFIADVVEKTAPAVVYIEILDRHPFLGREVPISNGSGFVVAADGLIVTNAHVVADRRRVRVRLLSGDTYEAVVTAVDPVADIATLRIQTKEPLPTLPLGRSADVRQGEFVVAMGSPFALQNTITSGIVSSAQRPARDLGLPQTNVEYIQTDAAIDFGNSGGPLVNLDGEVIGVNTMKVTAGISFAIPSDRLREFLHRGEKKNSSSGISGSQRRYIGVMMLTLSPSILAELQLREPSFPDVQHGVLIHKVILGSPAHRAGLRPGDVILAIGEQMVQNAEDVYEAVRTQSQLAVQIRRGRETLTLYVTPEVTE
UniProt Q96E35: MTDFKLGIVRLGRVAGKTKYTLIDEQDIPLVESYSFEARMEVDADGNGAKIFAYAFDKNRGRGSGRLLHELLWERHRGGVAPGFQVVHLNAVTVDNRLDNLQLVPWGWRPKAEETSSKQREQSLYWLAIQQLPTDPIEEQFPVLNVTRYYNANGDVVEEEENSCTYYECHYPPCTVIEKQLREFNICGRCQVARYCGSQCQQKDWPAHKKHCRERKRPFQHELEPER
UniProt Q9H2Y7: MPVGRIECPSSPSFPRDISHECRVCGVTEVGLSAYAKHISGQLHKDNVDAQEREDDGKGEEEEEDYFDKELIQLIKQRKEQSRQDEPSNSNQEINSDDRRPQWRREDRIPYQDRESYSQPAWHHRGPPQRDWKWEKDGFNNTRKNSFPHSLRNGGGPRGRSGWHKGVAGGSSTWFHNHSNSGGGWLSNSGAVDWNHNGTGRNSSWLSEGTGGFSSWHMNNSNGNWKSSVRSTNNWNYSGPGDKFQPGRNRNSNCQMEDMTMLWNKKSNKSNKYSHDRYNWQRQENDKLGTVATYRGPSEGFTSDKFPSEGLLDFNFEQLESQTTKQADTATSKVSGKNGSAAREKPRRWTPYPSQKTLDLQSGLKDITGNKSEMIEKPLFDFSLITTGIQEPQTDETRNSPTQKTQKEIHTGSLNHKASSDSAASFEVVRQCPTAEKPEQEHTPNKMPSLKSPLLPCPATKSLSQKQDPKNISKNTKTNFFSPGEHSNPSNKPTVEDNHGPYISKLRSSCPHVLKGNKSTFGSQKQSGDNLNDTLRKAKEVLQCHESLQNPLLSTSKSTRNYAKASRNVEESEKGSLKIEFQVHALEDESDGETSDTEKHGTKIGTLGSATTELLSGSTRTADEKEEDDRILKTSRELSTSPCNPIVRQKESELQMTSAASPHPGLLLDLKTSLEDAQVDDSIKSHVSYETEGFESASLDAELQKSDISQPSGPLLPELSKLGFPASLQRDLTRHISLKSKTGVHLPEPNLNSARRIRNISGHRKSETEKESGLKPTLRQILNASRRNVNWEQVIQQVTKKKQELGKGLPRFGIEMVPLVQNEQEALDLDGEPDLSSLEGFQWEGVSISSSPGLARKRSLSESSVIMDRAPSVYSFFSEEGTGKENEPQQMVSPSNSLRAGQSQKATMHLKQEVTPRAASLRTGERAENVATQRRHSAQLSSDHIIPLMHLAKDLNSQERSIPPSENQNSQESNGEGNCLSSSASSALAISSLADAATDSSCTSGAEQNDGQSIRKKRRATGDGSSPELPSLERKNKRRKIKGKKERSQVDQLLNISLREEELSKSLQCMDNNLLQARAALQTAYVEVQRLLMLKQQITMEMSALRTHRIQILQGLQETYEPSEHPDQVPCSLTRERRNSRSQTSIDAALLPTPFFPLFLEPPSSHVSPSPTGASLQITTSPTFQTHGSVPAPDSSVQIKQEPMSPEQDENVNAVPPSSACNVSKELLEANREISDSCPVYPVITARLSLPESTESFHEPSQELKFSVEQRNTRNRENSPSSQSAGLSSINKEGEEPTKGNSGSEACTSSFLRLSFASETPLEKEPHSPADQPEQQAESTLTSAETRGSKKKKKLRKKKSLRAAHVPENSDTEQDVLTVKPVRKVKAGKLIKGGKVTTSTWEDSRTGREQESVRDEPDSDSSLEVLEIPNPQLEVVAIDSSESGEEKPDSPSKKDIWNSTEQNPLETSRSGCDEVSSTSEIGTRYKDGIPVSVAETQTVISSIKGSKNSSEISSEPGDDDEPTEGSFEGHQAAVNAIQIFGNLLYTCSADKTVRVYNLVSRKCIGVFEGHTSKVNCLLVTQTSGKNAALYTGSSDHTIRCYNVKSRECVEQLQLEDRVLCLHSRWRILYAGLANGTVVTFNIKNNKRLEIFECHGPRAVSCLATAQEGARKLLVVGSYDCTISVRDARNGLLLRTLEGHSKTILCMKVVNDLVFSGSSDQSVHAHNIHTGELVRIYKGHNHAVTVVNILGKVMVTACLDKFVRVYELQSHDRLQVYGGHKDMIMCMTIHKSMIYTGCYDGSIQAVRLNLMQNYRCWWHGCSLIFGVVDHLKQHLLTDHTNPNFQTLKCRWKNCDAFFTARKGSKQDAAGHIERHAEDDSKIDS

These are yes or no findings as the source states them, for the method shown. In cells and extracts the contact can be indirect. These calls come from enrichment with a bait or labelling near it, and not all partners need be listed.

Turning to HTRA2 (from UniProt O43464), in assay [1], the binding result is on record as “binds”.

For the substance “Zinc finger MYND-type containing 19 (ZMYND19) (from UniProt Q96E35 1-227)”, the binding result in assay [2] was “binds”.

For “transcription factor ZNF106 (from UniProt Q9H2Y7 1-1883)”, in assay [1], the binding result is listed as “binds”.

Source of the values: article PMC11467045.
